Laboratory results reported in patent US20170000132A1, “BENZOXABOROLE FUNGICIDES” (SYNGENTA PARTICIPATIONS AG, priority 2013, published 2017).
Some of these results come from one statement about several compounds together. At least one structure is not confirmed: it was looked up by name or label, or the drawing left a doubt.

Key:
Plasmopara viticola = format: in vivo; conditions: 200 ppm; grape vine leaf disks, preventative; compared to untreated control
Fusarium culmorum = format: cell-based; conditions: 200 ppm
[1] = system: Magnaporthe grisea (Pyricularia oryzae); format: in vivo; conditions: 200 ppm; rice leaf segments cv. Ballila, preventative; compared to untreated control

| Compound | disease control (Plasmopara viticola) | disease control (inhibition of growth, visual) (Fusarium culmorum) | disease control [1] |
| --- | --- | --- | --- |
| OB1OCc2cc(C=NOCC=C(Cl)Cl)ccc21 (single isomer, unassigned) [Compound 405] | at least 80% | at least 80% |  |
| OB1OCc2cc(F)c(C=NOCC=CCl)cc21 [Compound 132] | at least 80% | at least 80% |  |
| CCON=Cc1cc2c(cc1F)COB2O (single isomer, unassigned) [Compound 139] |  | at least 80% |  |
| C=C(Cl)CON=Cc1ccc2c(c1)COB2O (single isomer, unassigned) [Compound 402] |  | at least 80% |  |
| OB1OCc2cc(F)c(C=NOCC=C(Cl)Cl)cc21 (single isomer, unassigned) [Compound 131] | at least 80% | at least 80% | at least 80% |
| C=C(Cl)CON=Cc1cc2c(cc1F)COB2O (single isomer, unassigned) [Compound 128] |  | at least 80% |  |
| OB1OCc2cc(C=NOCc3ccccc3F)ccc21 (single isomer, unassigned) [Compound 398] | at least 80% | at least 80% |  |
| CC(C)(C)ON=Cc1ccc2c(c1)COB2O (single isomer, unassigned) [Compound 395] | at least 80% | at least 80% |  |
| CCON=Cc1cc2c(cc1Cl)COB2O (single isomer, unassigned) [Compound 57] |  | at least 80% |  |
| CCON=Cc1cc(Cl)cc2c1B(O)OC2 (single isomer, unassigned) [Compound 207] |  | at least 80% |  |
| C=CCON=Cc1cc2c(cc1F)COB2O (single isomer, unassigned) [Compound 141] |  | at least 80% |  |
| OB1OCc2cc(C=NNc3cc(Cl)cc(Cl)c3)ccc21 (single isomer, unassigned) [Compound 378] | at least 80% | at least 80% |  |
| CCCON=Cc1cc2c(cc1Cl)COB2O (single isomer, unassigned) [Compound 61] |  | at least 80% |  |
| C=C(Cl)CON=Cc1cc2c(cc1Cl)COB2O (single isomer, unassigned) [Compound 48] | at least 80% | at least 80% |  |
| C=CCON=Cc1cc(Cl)cc2c1B(O)OC2 (single isomer, unassigned) [Compound 209] |  | at least 80% |  |
| OB1OCc2cc(F)c(C=NOCc3ccccc3F)cc21 (single isomer, unassigned) [Compound 124] | at least 80% | at least 80% |  |
| Cc1ccc(CON=Cc2cc3c(cc2F)COB3O)cc1 (single isomer, unassigned) [Compound 149] |  |  | at least 80% |
| OB1OCc2cc(C=NNc3ccc(C(F)(F)F)cc3)ccc21 (single isomer, unassigned) [Compound 387] |  | at least 80% |  |
| CCCON=Cc1cc2c(cc1F)COB2O (single isomer, unassigned) [Compound 144] |  | at least 80% |  |
| OB1OCc2cc(F)c(C=NOCc3ccccc3)cc21 (single isomer, unassigned) [Compound 142] | at least 80% | at least 80% |  |
| CC(C)ON=Cc1cc(Cl)cc2c1B(O)OC2 (single isomer, unassigned) [Compound 206] |  | at least 80% |  |
| CON=Cc1cc2c(cc1Cl)COB2O (single isomer, unassigned) [Compound 71] | at least 80% | at least 80% |  |
| OB1OCc2cc(C=NOCc3ccccc3)ccc21 (single isomer, unassigned) [Compound 394] |  | at least 80% |  |
